Here are results for 43 molecules from PubChem BioAssay AID662 (National Center for Advancing Translational Sciences (NCATS), 2007).

This is one part of the list. The main result of the screen is listed elsewhere. These columns were measured beside it and carry no call. Compounds called inactive in the main read-out are mostly missing here. The note in brackets gives the kind of curve behind each potency; many fits are weak.

As a reminder, the AC50 is the concentration giving half of the maximal activity seen.

A short description of this assay: Cell signaling CRE-BLA (Fsk stim). The following applies: CHO CRE-bla reporter (cAMP response element driving beta-lactamase), forskolin EC10, beta-lactamase ratio; measured here: 460 nm blue channel. Put shortly:
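CRE-bla CHO reporter cells treated with compound titration plus EC10 NKH 477 (water-soluble forskolin), incubated 3 h at 37 °C; CCF4 loading 2 h at room temperature, 460/530 nm emission ratio read, AC50 values derived for positive or negative modulators.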
For `COc1nc(N(c2ccccc2)c2ccccc2)nc(-n2ccnc2)n1`, the AC50 is 5.01 µM [rising, partial curve].

As to `CCOC(=O)N1CCN(c2c(F)cc3[nH]c(=S)[nH]c3c2Br)CC1`, the AC50 was 15.8 µM [falling, single point].

Consider `COc1ccccc1N1CCN(c2cc(=O)n(-c3ccc(Br)cc3)c(=O)[nH]2)CC1`, for which the concentration at half-maximal activity (AC50) was 0.316 µM [falling, full curve].

On to `COCCN(C(=O)Cc1cccs1)c1nnc(-c2ccncc2)s1`, for which the half-maximal activity concentration (AC50) was 25.1 µM [falling, single point].

Regarding `Cc1cn2c(nc1=O)OC1C(O)C(COC(=O)c3ccccc3)OC12` (stereo not drawn), the AC50 was 3.16 µM [falling, partial curve, poor fit].

With `O=C(Nc1cccc(F)c1)N1CCCC2(CCN(C(=O)c3cc(C(F)(F)F)cc(C(F)(F)F)c3)CC2)C1`, the AC50 is 20 µM [rising, single point].

Turning to `CCOc1nc(NCCc2ccc(OC)c(OC)c2)nc(NC(C)(C)CO)n1`, the AC50 was 12.6 µM [rising, partial curve, poor fit].

Take `Cc1ccc(S(=O)(=O)N2CCN(C(=O)CSc3nnnn3C)C2)cc1`: the half-maximal activity concentration (AC50) is 25.1 µM [rising, single point].

`C=C(C)Cn1c(=O)c2c(nc3n2CCN3c2cccc(Cl)c2C)n(C)c1=O`: the half-maximal activity concentration (AC50) is 5.01 µM [falling, full curve, poor fit].

On to `CC1CCCCN1c1nnc(NC(=O)Cn2c(=O)oc3ccccc32)s1` (stereo not drawn), for which the AC50 was 10 µM [rising, partial curve].

As for `O=C1NC(=O)c2c(NC(=O)C3CCCO3)cccc21` (stereo not drawn), the AC50 is 10 µM [rising, single point].

As to `O=C(O)c1cncc(C(=O)O)c1`, the AC50 is 2 µM [rising, single point].

In the case of `Cc1ccc(-c2nnc(SCC#N)n2N)cc1`, the concentration at half-maximal activity (AC50) is 3.98 µM [falling, single point].

Take `CN(C)c1nc(N)nc(Cn2ccnc2)n1`: the AC50 was 1.58 µM [rising, full curve].

For the molecule `O=C(Nc1ccc(Cl)cc1)Nc1ccc2c(c1)N1CCN=C1S2`, the concentration at half-maximal activity (AC50) is 5.01 µM [falling, single point].

Regarding `O=C(NC(Cc1ccc2c(c1)OCO2)C(=O)N1CCCC1C(=O)O)c1ccccc1` (stereo not drawn), the half-maximal activity concentration (AC50) is 0.398 µM [rising, full curve].

As to `COc1ccc(-n2nc(C(=O)NCC(=O)NCc3ccco3)c3ccccc3c2=O)cc1`, the AC50 is 0.0794 µM [falling, partial curve, poor fit].

With `CCOc1ccc(CCNC(=O)Cc2nn[nH]n2)cc1OCC`, the AC50 was 0.398 µM [falling, full curve].

With `CC(n1cnnn1)C12CC3CC(CC(C3)C1)C2` (stereo not drawn), the half-maximal activity concentration (AC50) was 12.6 µM [rising, partial curve].

Consider `Cc1cccc(N2CSC3=C(C#N)C(c4ccc(C)o4)CC(=O)N3C2)c1` (stereo not drawn), for which the AC50 was 1 µM [falling, full curve].

`CCOC(=O)c1oc2nc(C(C)C)c3c(c2c1N)CCC3`: the AC50 is 12.6 µM [falling, partial curve].

Take `COc1ccc(C(=O)CN2C(=O)C(C)(C)Oc3ccc(C(=O)N4CCCCCC4)cc32)cc1`: the AC50 is 1 µM [falling, partial curve].

Turning to `CCC(Sc1nc(N)c(NC(=O)c2ccc(OC)c(OC)c2)c(=O)[nH]1)C(=O)OC` (stereo not drawn), the AC50 was 12.6 µM [rising, partial curve].

Consider `CN(C)C(=O)c1ccc(-c2nccc(Nc3ccc(F)cc3)n2)cc1`, for which the concentration at half-maximal activity (AC50) was 3.98 µM [rising, full curve, poor fit].

Consider `Cc1nc(SCC(=O)NCc2ccco2)nc(C)c1C`, for which the concentration at half-maximal activity (AC50) is 7.94 µM [falling, partial curve, poor fit].

Consider `Cc1nn2c(-c3ccccc3)nnc2c2ccccc12`, for which the concentration at half-maximal activity (AC50) is 10 µM [rising, partial curve].

With `Cc1cc(C)cc(N(CC(=O)NCC2CCCO2)C(=O)CN2C(=O)COc3ccccc32)c1` (stereo not drawn), the AC50 was 0.794 µM [rising, partial curve, poor fit].

As to `CCN(CC)C(=O)C1CCCN(Cc2ccccc2F)C1` (stereo not drawn), the concentration at half-maximal activity (AC50) is 0.00316 µM [falling, full curve].

Take `CCOc1ccccc1NC(=O)Cn1cnc2c(cnn2-c2ccc(C)c(C)c2)c1=O`: the concentration at half-maximal activity (AC50) is 0.398 µM [rising, full curve].

`O=C(NC1CCCCC1)c1ccc2c(=O)n(CC3CCCO3)c(=O)[nH]c2c1` (stereo not drawn): the AC50 was 0.631 µM [rising, full curve].

In the case of `COC(=O)c1sc(=S)n(-c2cc(F)ccc2F)c1N`, the AC50 is 10 µM [rising, partial curve, poor fit].

For `COc1ccc(OC)c(NC(=O)Cn2cc(C(=O)c3ccco3)c3ccccc32)c1`, the AC50 was 0.00316 µM [falling, full curve, poor fit].

Consider `CN1C(=O)c2cccc(N(C)C)c2C1=O`, for which the AC50 was 12.6 µM [rising, partial curve].

As to `COc1cc(C2C3=C(Nc4ncnn42)c2ccccc2CC3)cc(OC)c1OC` (stereo not drawn), the AC50 was 0.398 µM [rising, full curve].

`CCOC(=O)c1ccc(Oc2nc(OC)nc(N(C)C)n2)cc1`: the AC50 was 10 µM [rising, single point].

`CCOC(=O)c1c(C)n(C)c2ccc(OCC(O)Cn3nc(C)cc3C)cc12` (stereo not drawn): the half-maximal activity concentration (AC50) was 10 µM [rising, partial curve].

For `Cc1cccc(-c2nnc3n2N=C(c2ccccc2Br)CS3)c1`, the AC50 was 0.00794 µM [rising, full curve, poor fit].

On to `Cc1ccc2c(CSc3nnc(C4CC4)n3N)cc(=O)oc2c1`, for which the half-maximal activity concentration (AC50) was 0.0501 µM [falling, full curve, poor fit].

In the case of `CCC(Sc1nc2cc3c(cc2c(=O)n1Cc1ccco1)OCO3)C(=O)Nc1cccc(OC)c1` (stereo not drawn), the half-maximal activity concentration (AC50) was 1.26 µM [rising, partial curve].

Consider `C=CCSc1nc2ccccc2[nH]1`, for which the AC50 was 2.51 µM [rising, single point].

For the molecule `CCN(CC)S(=O)(=O)c1ccc(F)c(C(=O)NCCC(C)C)c1`, the AC50 was 10 µM [rising, single point].

With `Cc1ccccc1Cn1cc(NC(=O)c2cc3nc(-c4ccco4)cc(C(F)(F)F)n3n2)cn1`, the AC50 is 15.8 µM [rising, single point].

Take `CCN(CC)CCCNC(=O)c1cc2c(=O)n(C)c3ccccc3c2n1C`: the concentration at half-maximal activity (AC50) was 10 µM [rising, partial curve].
